The text below walks through data of paper PMC7819943, “Rice protein-binding microarrays: a tool to detect cis-acting elements near promoter regions in rice”.

Amino acid sequences for entries named in this document (tags omitted).
UniProt Q0JBA9, entry or part of it: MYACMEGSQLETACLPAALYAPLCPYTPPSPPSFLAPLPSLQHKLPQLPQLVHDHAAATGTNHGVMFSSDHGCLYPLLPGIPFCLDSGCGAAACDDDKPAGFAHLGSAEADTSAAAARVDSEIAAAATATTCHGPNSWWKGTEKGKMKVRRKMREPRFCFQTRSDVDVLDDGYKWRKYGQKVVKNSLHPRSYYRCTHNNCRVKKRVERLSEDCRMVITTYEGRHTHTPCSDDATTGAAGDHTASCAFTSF

Some of the results follow.

This assay deals with OsWRKY34 (Oryza sativa, UniProt Q0JBA9 1-250). Put plainly: protein-binding microarray (RPBM); PBS, 2% BSA, 51.3 ng/ul salmon testes DNA, 50 uM zinc acetate, 200 nM TF, 25 C, 1 h; high values mean tight binding. As to conditions: protein: recombinant; tags: N-terminal polyhistidine and DsRed monomer fusion (pET32a); label: CyDye5-dUTP incorporated in the synthesized complementary strand; 3' TTTTT single-stranded linker to array surface; dsDNA, one strand shown. The procedure, abridged: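 The binding signal is fluorescence intensity per feature, in arbitrary units, read on an Axon 4000B scanner. Polyhistidine- and DsRed-tagged transcription factors (N-terminal fusions) from E. coli BL21-CodonPlus were purified on Ni–NTA and applied at 200 nM for 1 h at 25 °C to a double-stranded, BSA-blocked custom Agilent array in buffer with 50 µM zinc acetate.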
On to “CGCCGGCTTCGCGCTCCCAACCTCGCCGTCGTTCGTCATGCGGAGTCACCTAGTGCAG”, for which the binding signal was 8120 fluorescence intensity (a.u.).

Regarding “TTCATCAGTAGTCTTCCAATTACTTCCCTTCATCTAGTTACGGAGTCACCTAGTGCAG”, the binding signal is 8190 fluorescence intensity (a.u.).

Take “CTCCTGCGTCGCATGCGCTTATCCCTACCAATGAGTTAACCGGAGTCACCTAGTGCAG”: the binding signal was 12100 fluorescence intensity (a.u.).

With “GCATGCGGCCGCGACCGACCGACCATCTCCTTGGTCCTTCCGGAGTCACCTAGTGCAG”, the binding signal was 9790 fluorescence intensity (a.u.).

Turning to “GATCGCCCTGTGCCGTGCAGTGCAGTTCGTCGACCTCTTGCGGAGTCACCTAGTGCAG”, the binding signal is 8580 fluorescence intensity (a.u.).

With “CTTTTTTTACAAATGGATCCTTGGTGCTAATGTTCATATTCGGAGTCACCTAGTGCAG”, the binding signal is 9020 fluorescence intensity (a.u.).

As for “CGGCGCGTACGCAGTCCACTACCACCACTTCCGCCGGCGCCGGAGTCACCTAGTGCAG”, the binding signal is 8450 fluorescence intensity (a.u.).

“TTTGTCGTTGCTTCCCTTCTTGGAGACCTTGCCTTGAAGACGGAGTCACCTAGTGCAG”: the binding signal was 8090 fluorescence intensity (a.u.).

As to “CCTGCTCGATCCGATCCAATCCGCTCCTCTCCAGTCCAGACGGAGTCACCTAGTGCAG”, the binding signal was 8820 fluorescence intensity (a.u.).

For the sequence “TCTCTCTCTCTCTCTCTCTCTTCTCCTCGCGTTATCCTTCCGGAGTCACCTAGTGCAG”, the binding signal is 9110 fluorescence intensity (a.u.).

Consider “ACTTCCAACTTTTCTGTCACATCGAATTTTCCTACACACACGGAGTCACCTAGTGCAG”, for which the binding signal was 8450 fluorescence intensity (a.u.).

On to “TTTCTATTAATATTATTTTGGAGGGCCAGGGGCGGTTCTCCGGAGTCACCTAGTGCAG”, for which the binding signal was 11000 fluorescence intensity (a.u.).

For the sequence “TACAAGACCATAGTTCGACTCCCCACCACCGCGCCTGAATCGGAGTCACCTAGTGCAG”, the binding signal is 8460 fluorescence intensity (a.u.).

Take “TCGCCGTTCGCTGGTATATGCCGTTGTCTTGGAATCATCTCGGAGTCACCTAGTGCAG”: the binding signal was 11100 fluorescence intensity (a.u.).

On to “ACCTGTTGAGCAACTATTTTTACCGTACTTTGGAGCGTTTCGGAGTCACCTAGTGCAG”, for which the binding signal is 8540 fluorescence intensity (a.u.).

Consider “TTTTTGGATGATTTTCTTAAGTTTGGGGTTAGACTTGTTTCGGAGTCACCTAGTGCAG”, for which the binding signal was 8560 fluorescence intensity (a.u.).

As for “AAACACCGACCATTTCTTCACTCTCTAAGCTAGCTCGATGCGGAGTCACCTAGTGCAG”, the binding signal was 9170 fluorescence intensity (a.u.).

As for “TTGGGTATCGTATTGGGTGTTCGGGCACTAATAAAAAAACCGGAGTCACCTAGTGCAG”, the binding signal is 10600 fluorescence intensity (a.u.).

As for “CGCATCGCATCCCATCCCATCCCATCGCACCGCGCAAAACCGGAGTCACCTAGTGCAG”, the binding signal is 8240 fluorescence intensity (a.u.).

Consider “TTTCTGTTCTGCATTTCTGTCGCTTCCTCTGCATGCAACACGGAGTCACCTAGTGCAG”, for which the binding signal was 11800 fluorescence intensity (a.u.).

Take “TATATGGGCCTAATGCATTGTTACGCTTTCAGCCCATAACCGGAGTCACCTAGTGCAG”: the binding signal is 9240 fluorescence intensity (a.u.).

For the sequence “GTTTGCCCGTCTAATTTTTGTTTGTTGCGTCAGACGTCTACGGAGTCACCTAGTGCAG”, the binding signal is 8780 fluorescence intensity (a.u.).

“CCGCTCCTCTCCTTTCCGCCGCCGCCACCGCGCGCTCTTCCGGAGTCACCTAGTGCAG”: the binding signal was 9940 fluorescence intensity (a.u.).

For the sequence “AGGTTGTTCTTCTTCGACATCTTCCTCGCCGCCAACCGCCCGGAGTCACCTAGTGCAG”, the binding signal is 13100 fluorescence intensity (a.u.).

Turning to “AAAAAGCTTGCAAGTCTAAGTCTTTTTTTTTTTTGCATCACGGAGTCACCTAGTGCAG”, the binding signal is 9290 fluorescence intensity (a.u.).

Take “CTAATCTACCCCAACATCCCAACTTTGACCGGGCCTCGATCGGAGTCACCTAGTGCAG”: the binding signal is 8160 fluorescence intensity (a.u.).

With “AATCATCTCTATACATGTATCGTCCTGATATTTCTGCACGCGGAGTCACCTAGTGCAG”, the binding signal was 9870 fluorescence intensity (a.u.).

Turning to “TCCGCCGAGCCCTAGTTTCCGCCGCCGCCGCCGCCGCGCCCGGAGTCACCTAGTGCAG”, the binding signal was 9130 fluorescence intensity (a.u.).

For the sequence “TATGATTGACATGTGAGCTCCACCACTCTCGGGCCCACATCGGAGTCACCTAGTGCAG”, the binding signal is 8620 fluorescence intensity (a.u.).

In the case of “CCGTTTGCTTCTAACTACCGCGGGGCCAACGAACTTTTCCCGGAGTCACCTAGTGCAG”, the binding signal was 8950 fluorescence intensity (a.u.).

Consider “TTCCACACAATGTGCTAAAAGTTTGACTTTTACACGTCCACGGAGTCACCTAGTGCAG”, for which the binding signal was 14500 fluorescence intensity (a.u.).

On to “GGCTCCAAATCATCTGCCTTCATTGTCAGGCTTCAGTAATCGGAGTCACCTAGTGCAG”, for which the binding signal is 10400 fluorescence intensity (a.u.).

Turning to “CATCCTCCTTCCGGAACCTTCTAGAAGGTTCTCCTCGTACCGGAGTCACCTAGTGCAG”, the binding signal was 8530 fluorescence intensity (a.u.).

Consider “TTCCCACAACTGATTTTTCACAGCCGCTTTTCCACAGCCCCGGAGTCACCTAGTGCAG”, for which the binding signal is 9090 fluorescence intensity (a.u.).

Turning to “CTCCACATATTTTGGCGCTGACACTTCTATCGGCTTCTTTCGGAGTCACCTAGTGCAG”, the binding signal was 9980 fluorescence intensity (a.u.).

With “ATATATTAGAGCTCTTTAATTTGTTTCATGTTCAGTACGTCGGAGTCACCTAGTGCAG”, the binding signal is 10600 fluorescence intensity (a.u.).

For the sequence “AACATAACCAATTGACCTTGACCATATCATCAATCGAACCCGGAGTCACCTAGTGCAG”, the binding signal is 8760 fluorescence intensity (a.u.).

With “GACACATCGCGTACTATCTCTAGGCCTGAGCGTTTAGTAACGGAGTCACCTAGTGCAG”, the binding signal was 10300 fluorescence intensity (a.u.).

As to “CCTTTTTGGGTCTCCATTTCCTTGTGTCCTCGAAGCATATCGGAGTCACCTAGTGCAG”, the binding signal is 9470 fluorescence intensity (a.u.).

For “TCAGGCATCCATTTCGACACTTGTAACACATGTTACTTTCCGGAGTCACCTAGTGCAG”, the binding signal is 10500 fluorescence intensity (a.u.).

As for “ATCTCAGCCTCCGTTTTCATTAATGACCTAATCTCCAACTCGGAGTCACCTAGTGCAG”, the binding signal was 9340 fluorescence intensity (a.u.).

For the sequence “TCCCATTTGACCACCCCACCCACGCCGCTACGCGCCTTCCCGGAGTCACCTAGTGCAG”, the binding signal is 10100 fluorescence intensity (a.u.).
